Test results from the supplement of paper PMC3334620.
Whole data set: some 33,000 sequences, median “E-score (-0.5 to 0.5)” near -0.0014, cut for the highest 2% near 0.25. The list shows a part of the results.

biological target: T1, Cad1 (UniProt P24813); assay: PBM E-score (8-mer binding enrichment) (E-score (-0.5 to 0.5)); higher = stronger / more preferred TF binding; settings: protein concentration: 100 nM; construct: GST-full length
T1 sequence: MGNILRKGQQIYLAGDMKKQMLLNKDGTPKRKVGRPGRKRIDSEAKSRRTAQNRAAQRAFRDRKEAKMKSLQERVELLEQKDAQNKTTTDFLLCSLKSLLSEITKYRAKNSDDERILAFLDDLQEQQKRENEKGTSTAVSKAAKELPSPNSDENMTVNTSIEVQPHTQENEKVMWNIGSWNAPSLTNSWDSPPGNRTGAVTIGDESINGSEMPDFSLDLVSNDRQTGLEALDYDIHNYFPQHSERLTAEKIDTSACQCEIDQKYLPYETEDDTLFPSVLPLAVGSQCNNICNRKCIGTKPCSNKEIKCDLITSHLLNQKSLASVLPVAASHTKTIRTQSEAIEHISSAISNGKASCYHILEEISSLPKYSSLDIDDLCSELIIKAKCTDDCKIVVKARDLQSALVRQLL
Summary of the method: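 PURExpress in vitro transcription/translation supplied GST-tagged yeast transcription factors, either full-length or DNA-binding domain. Applied at about 100-200 nM to universal all-10-mer Agilent arrays double-stranded by primer extension, the bound protein was detected with fluorescent anti-GST. E-scores, modified Wilcoxon-Mann-Whitney statistics, were given by the Universal PBM Analysis Suite to ungapped eight-base words pooled with their reverse complements after masliner normalisation.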

Row | Sequence | PBM E-score
1 | ATACCGAT | 0.00216
2 | AAAGATGC | -0.0199
3 | CCTACGGC | -0.163
4 | CACGACTG | -0.128
5 | TCGCGGCA | -0.00246
6 | CATTAATC | 0.153
7 | AGGACCAT | -0.217
8 | GGAGGTCA | -0.076
9 | GATCATAA | 0.169
10 | AGTCCTAC | -0.0257
11 | AAACATAC | -0.123
12 | ATGCGATC | 0.0312
13 | TACGGTCA | -0.0762
14 | AGGTTGCG | -0.0319
15 | CGAGCTAC | 0.111
16 | ACCGTTGC | -0.0728
17 | AAATTGCC | 0.151
18 | CCGCGACC | -0.19
19 | GAGGCTCC | -0.0488
20 | TAAAGTTA | 0.168
21 | AGCTAGAA | -0.196
22 | AGCTGAGA | 0.0757

Row | Sequence | PBM E-score
23 | GGACGACC | -0.152
24 | CAGCAACG | 0.145
25 | AAACGTTC | 0.0399
26 | ATGGCTCC | -0.0559
27 | CCCGGTCG | -0.226
28 | TCCCCCCA | -0.404
29 | CAAATGAA | 0.101
30 | AAAACCCC | -0.297
31 | TCTACACA | 0.0495
32 | GCCTTGAA | -0.151
33 | AATCCTAG | 0.104
34 | ATGCGATA | 0.0659
35 | GCGGTTTA | -0.0547
36 | ATGCGAGG | -0.0354
37 | CCCGCAGA | -0.02
38 | CAAGGGCC | -0.161
39 | ATAGTTTG | 0.0741
40 | AAGTTCCA | -0.0841
41 | AGCCACGC | -0.148
42 | CCAATGGC | 0.0149
43 | AGTCAGCC | 0.0809
44 | GATAAAAC | 0.244

Quoted from the listing.
Value of TAAAGTTA under PBM E-score: 0.168
Value of ATAGTTTG under PBM E-score: 0.0741
Value of GCCTTGAA under PBM E-score: -0.151
Value of ATGCGATC under PBM E-score: 0.0312
Value of GATAAAAC under PBM E-score: 0.244

More records:

Row | Sequence | PBM E-score
45 | CCGAGTCA | -0.0617
46 | TACCCGGA | 0.12
47 | AACACTGC | 0.188
48 | ACTACGGA | -0.0161
49 | ATTCAAGC | 0.164
50 | TCTGGTCA | 0.086
51 | CAATCATA | 0.148
52 | TAAGGGCA | -0.0845
53 | ATCGGTAG | 0.0904
54 | ACCAGGGC | -0.111
55 | CACTAGGC | -0.0903
56 | AGGAGTGG | -0.192
57 | CACCAAAA | 0.112
58 | ATAAAGAA | 0.0488
59 | TAGTCATA | 0.108
60 | GGAAGACA | -0.0527
61 | AATACCAT | 0.197
62 | AAAAGGTA | -0.162
63 | ACTCCGAA | -0.046
64 | CATGTAAA | -0.0641
65 | ACTATTAG | 0.063
66 | CTGATCTA | -0.103

Row | Sequence | PBM E-score
67 | AGCAGCGG | -0.0904
68 | ACCGCTCT | -0.121
69 | CTACCCCA | -0.101
70 | GAGACCGC | -0.183
71 | CGCTTGTC | 0.0361
72 | GTGCTGTA | -0.0115
73 | AATCGTAA | 0.105
74 | CCAGCATC | -0.0679
75 | CATGAATC | -0.0716
76 | CCGGCTGA | 0.118
77 | CACTACCG | -0.225
78 | GGGGCGTA | -0.266
79 | CCAGCTCA | -0.0848
80 | ACTTTGTC | 0.11
81 | ACCATTCA | 0.0483
82 | ACAGCCGC | -0.0506
83 | CAACGCGG | 0.0152
84 | ATTGACCG | 0.174
85 | CCCAGATA | -0.0901
86 | ATCTTATA | 0.172
